Test results taken from PMC5090064, “Coordinated regulation of the ESCRT-III component CHMP4C by the chromosomal passenger complex and centralspindlin during cytokinesis” (Open Biology, 2016).
Results are given in words; binding and its absence hold for the method and conditions named. For some of these results: In cells and extracts the contact can be indirect. Some results given as binding are weak or reduced against the parent protein; the word gives no strength. For some of these results: Tags and fused reporters may be left off the sequences shown. Each block holds one binder with its values, some of them ahead of it.

Sequences of proteins named here, by UniProt entry; tags and fusion partners are left off.
UniProt Q96GD4: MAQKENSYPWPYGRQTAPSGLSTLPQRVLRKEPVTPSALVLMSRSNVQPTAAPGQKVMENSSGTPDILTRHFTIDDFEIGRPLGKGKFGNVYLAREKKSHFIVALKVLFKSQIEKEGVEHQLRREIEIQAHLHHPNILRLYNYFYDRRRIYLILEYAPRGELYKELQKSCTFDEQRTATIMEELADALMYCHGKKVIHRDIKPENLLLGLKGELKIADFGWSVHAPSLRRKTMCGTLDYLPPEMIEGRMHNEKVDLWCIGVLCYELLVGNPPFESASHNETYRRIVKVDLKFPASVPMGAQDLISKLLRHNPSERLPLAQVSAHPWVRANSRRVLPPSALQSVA

Columns and labels:
[1] = molecular target: T1, GST::MKLP1 polypeptide encompassing part of the coiled coil domain and the whole tail region (aa 590–856) (UniProt Q02241); assay: pull-down; GST-tagged protein purified from E. coli on glutathione beads; in vitro translated [35S]methionine-labelled polypeptides; binding at 150 mM NaCl, washes 150 mM to 1 M NaCl; only the target purified
T1 sequence: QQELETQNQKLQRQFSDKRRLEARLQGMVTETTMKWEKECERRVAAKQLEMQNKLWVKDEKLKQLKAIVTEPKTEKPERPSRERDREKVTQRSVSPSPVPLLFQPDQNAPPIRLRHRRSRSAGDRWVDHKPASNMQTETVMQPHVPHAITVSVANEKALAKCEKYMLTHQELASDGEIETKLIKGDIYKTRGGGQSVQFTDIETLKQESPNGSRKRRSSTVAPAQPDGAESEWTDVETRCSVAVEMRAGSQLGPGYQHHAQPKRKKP

[2] = molecular target: T2, GST::MKLP1 central region containing the coiled coil domain (aa 437–619) (UniProt Q02241); assay: as above
T2 sequence: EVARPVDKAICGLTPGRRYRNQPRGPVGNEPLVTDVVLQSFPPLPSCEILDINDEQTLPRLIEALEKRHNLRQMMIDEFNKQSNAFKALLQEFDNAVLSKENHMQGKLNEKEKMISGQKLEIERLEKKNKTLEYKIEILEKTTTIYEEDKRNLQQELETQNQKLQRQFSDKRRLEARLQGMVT

[3] = molecular target: T3, CHMP4C (purified recombinant, full-length) (human), Q96CF2; assay: atomic force microscopy; purified proteins on mica surfaces without lipid bilayers, imaged under fluid at room temperature; both purified; details: remark: other sources report otherwise
T3 chain: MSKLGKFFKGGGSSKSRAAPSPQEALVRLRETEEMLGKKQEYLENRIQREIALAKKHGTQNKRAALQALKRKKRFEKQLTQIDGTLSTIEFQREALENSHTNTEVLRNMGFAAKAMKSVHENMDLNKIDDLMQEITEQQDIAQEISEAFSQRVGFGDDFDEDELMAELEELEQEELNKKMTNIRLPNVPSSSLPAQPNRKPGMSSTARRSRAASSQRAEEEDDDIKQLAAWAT

[4] = molecular target: GST-tagged Aurora B (bacterially purified) (UniProt Q96GD4); assay: pull-down; GST-tagged protein purified from E. coli on glutathione beads; in vitro translated [35S]methionine-labelled polypeptides; binding at 150 mM NaCl, washes 150 mM to 1 M NaCl; only the target purified
MKLP1::GFP = molecular target: T4, MKLP1::GFP (UniProt Q02241); assay: co-IP; GFP-Trap magnetic beads (GFP nanobodies); extracts of HeLa cells stably expressing MKLP1::GFP transfected with Flag::CHMP4C constructs, synchronized in telophase; 4°C; western blot for Flag and GFP
T4 sequence: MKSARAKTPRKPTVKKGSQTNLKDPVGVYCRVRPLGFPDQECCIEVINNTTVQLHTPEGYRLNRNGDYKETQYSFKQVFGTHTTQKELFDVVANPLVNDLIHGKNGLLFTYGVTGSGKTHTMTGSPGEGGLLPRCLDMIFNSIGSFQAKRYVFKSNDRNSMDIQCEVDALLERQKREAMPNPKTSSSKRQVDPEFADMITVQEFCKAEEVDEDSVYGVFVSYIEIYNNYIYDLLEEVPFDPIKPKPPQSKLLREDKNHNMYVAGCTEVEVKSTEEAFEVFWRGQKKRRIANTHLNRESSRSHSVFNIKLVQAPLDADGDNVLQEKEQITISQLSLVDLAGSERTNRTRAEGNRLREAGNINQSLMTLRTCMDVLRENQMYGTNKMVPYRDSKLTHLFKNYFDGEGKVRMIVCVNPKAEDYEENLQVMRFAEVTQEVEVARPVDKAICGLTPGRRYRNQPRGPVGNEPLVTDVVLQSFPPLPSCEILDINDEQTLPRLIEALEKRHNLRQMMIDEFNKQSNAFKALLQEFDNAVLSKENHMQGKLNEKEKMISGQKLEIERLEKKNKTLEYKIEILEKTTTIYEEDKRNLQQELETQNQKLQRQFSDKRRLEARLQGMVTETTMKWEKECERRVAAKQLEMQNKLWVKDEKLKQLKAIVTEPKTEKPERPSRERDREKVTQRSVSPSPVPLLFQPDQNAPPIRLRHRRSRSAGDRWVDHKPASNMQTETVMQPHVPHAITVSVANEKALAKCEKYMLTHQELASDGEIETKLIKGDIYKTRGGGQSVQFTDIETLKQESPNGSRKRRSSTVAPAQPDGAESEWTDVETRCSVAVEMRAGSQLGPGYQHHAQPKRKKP

binding [1]: binds
binding [2]: binds
B1: CHMP4C N-terminal basic half (aa 1–121), in vitro translated (domain or fragment, UniProt Q96CF2 1-121)
chain: MSKLGKFFKGGGSSKSRAAPSPQEALVRLRETEEMLGKKQEYLENRIQREIALAKKHGTQNKRAALQALKRKKRFEKQLTQIDGTLSTIEFQREALENSHTNTEVLRNMGFAAKAMKSVHE
modifications: [35S]methionine label

binding [3]: binds
B2: CHMP4C (purified recombinant, full-length), Q96CF2 1-233 (protein)
chain: MSKLGKFFKGGGSSKSRAAPSPQEALVRLRETEEMLGKKQEYLENRIQREIALAKKHGTQNKRAALQALKRKKRFEKQLTQIDGTLSTIEFQREALENSHTNTEVLRNMGFAAKAMKSVHENMDLNKIDDLMQEITEQQDIAQEISEAFSQRVGFGDDFDEDELMAELEELEQEELNKKMTNIRLPNVPSSSLPAQPNRKPGMSSTARRSRAASSQRAEEEDDDIKQLAAWAT

binding [4]: binds
B3: in vitro translated CHMP4C (protein, UniProt Q96CF2 1-233)
chain: MSKLGKFFKGGGSSKSRAAPSPQEALVRLRETEEMLGKKQEYLENRIQREIALAKKHGTQNKRAALQALKRKKRFEKQLTQIDGTLSTIEFQREALENSHTNTEVLRNMGFAAKAMKSVHENMDLNKIDDLMQEITEQQDIAQEISEAFSQRVGFGDDFDEDELMAELEELEQEELNKKMTNIRLPNVPSSSLPAQPNRKPGMSSTARRSRAASSQRAEEEDDDIKQLAAWAT

binding (MKLP1::GFP): binds
B4: Flag::CHMP4C WT (protein, UniProt Q96CF2 1-233)
chain: MSKLGKFFKGGGSSKSRAAPSPQEALVRLRETEEMLGKKQEYLENRIQREIALAKKHGTQNKRAALQALKRKKRFEKQLTQIDGTLSTIEFQREALENSHTNTEVLRNMGFAAKAMKSVHENMDLNKIDDLMQEITEQQDIAQEISEAFSQRVGFGDDFDEDELMAELEELEQEELNKKMTNIRLPNVPSSSLPAQPNRKPGMSSTARRSRAASSQRAEEEDDDIKQLAAWAT

binding (MKLP1::GFP): binds
B5: Flag::CHMP4C StripleA (S210A, S214A and S215A) (protein, UniProt Q96CF2 1-233)
chain: MSKLGKFFKGGGSSKSRAAPSPQEALVRLRETEEMLGKKQEYLENRIQREIALAKKHGTQNKRAALQALKRKKRFEKQLTQIDGTLSTIEFQREALENSHTNTEVLRNMGFAAKAMKSVHENMDLNKIDDLMQEITEQQDIAQEISEAFSQRVGFGDDFDEDELMAELEELEQEELNKKMTNIRLPNVPSSSLPAQPNRKPGMSSTARRARAAAAQRAEEEDDDIKQLAAWAT

binding (MKLP1::GFP): binds
B6: Flag::CHMP4C S210A (protein, UniProt Q96CF2 1-233)
chain: MSKLGKFFKGGGSSKSRAAPSPQEALVRLRETEEMLGKKQEYLENRIQREIALAKKHGTQNKRAALQALKRKKRFEKQLTQIDGTLSTIEFQREALENSHTNTEVLRNMGFAAKAMKSVHENMDLNKIDDLMQEITEQQDIAQEISEAFSQRVGFGDDFDEDELMAELEELEQEELNKKMTNIRLPNVPSSSLPAQPNRKPGMSSTARRARAASSQRAEEEDDDIKQLAAWAT
